Test results taken from publication PMC12579213.
No constants are given. Whether binding was seen depends on the method and setting. Some binding calls cover weakened binding; strength is not graded here.

Amino acid sequences for entries named in this document (tags omitted). A change or cut given only in a name is not applied to a line headed by its entry. Residues count along the entry.
UniProt Q13464, residues 934-1015: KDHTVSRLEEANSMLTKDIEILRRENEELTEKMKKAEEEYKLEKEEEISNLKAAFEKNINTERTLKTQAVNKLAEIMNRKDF
UniProt P61586: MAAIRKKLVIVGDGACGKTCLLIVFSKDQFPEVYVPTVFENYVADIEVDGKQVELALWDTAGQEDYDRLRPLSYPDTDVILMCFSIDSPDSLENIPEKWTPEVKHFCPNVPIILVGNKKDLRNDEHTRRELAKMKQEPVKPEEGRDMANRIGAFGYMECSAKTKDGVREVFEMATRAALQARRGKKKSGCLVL

Biological target: 6xHis-tagged RBD_(ROCK1) (UniProt Q13464)
Assay: BLI; BLItz instrument; His-tagged protein loaded on Ni-NTA biosensor for 90 s; association and dissociation 120 s; three concentrations; both purified

binding: binds
Substance: GST-tagged RhoA (Q63L) (from UniProt P61586 1-193)
